No constants are given. Whether binding was seen depends on the method and setting. In cells and extracts the contact can be indirect. Some results given as binding are weak or reduced against the parent protein; the word gives no strength.
How the values were obtained:
β2-adaptin-YFP [1] = target: β2-adaptin-YFP (UniProt P63010); experiment: FRET or BRET; BRET in HEK-293 cells: βarr1-RlucII and β2-adaptin-YFP with V2R^WT or V2R^T360A and Ib-CTL or Ib30; AVP doses, 45 min; lower response for V2R^T360A with Ib-CTL, raised by Ib30
β2-adaptin-YFP [2] = target: β2-adaptin-YFP (UniProt P63010); experiment: FRET or BRET; BRET in HEK-293 cells: βarr1-RlucII and β2-adaptin-YFP with rising amounts (0 to 3 µg DNA) of Ib30, no receptor transfected, no ligand

Sequences of proteins named here, by UniProt entry; tags and fusion partners are left off.
UniProt P63010: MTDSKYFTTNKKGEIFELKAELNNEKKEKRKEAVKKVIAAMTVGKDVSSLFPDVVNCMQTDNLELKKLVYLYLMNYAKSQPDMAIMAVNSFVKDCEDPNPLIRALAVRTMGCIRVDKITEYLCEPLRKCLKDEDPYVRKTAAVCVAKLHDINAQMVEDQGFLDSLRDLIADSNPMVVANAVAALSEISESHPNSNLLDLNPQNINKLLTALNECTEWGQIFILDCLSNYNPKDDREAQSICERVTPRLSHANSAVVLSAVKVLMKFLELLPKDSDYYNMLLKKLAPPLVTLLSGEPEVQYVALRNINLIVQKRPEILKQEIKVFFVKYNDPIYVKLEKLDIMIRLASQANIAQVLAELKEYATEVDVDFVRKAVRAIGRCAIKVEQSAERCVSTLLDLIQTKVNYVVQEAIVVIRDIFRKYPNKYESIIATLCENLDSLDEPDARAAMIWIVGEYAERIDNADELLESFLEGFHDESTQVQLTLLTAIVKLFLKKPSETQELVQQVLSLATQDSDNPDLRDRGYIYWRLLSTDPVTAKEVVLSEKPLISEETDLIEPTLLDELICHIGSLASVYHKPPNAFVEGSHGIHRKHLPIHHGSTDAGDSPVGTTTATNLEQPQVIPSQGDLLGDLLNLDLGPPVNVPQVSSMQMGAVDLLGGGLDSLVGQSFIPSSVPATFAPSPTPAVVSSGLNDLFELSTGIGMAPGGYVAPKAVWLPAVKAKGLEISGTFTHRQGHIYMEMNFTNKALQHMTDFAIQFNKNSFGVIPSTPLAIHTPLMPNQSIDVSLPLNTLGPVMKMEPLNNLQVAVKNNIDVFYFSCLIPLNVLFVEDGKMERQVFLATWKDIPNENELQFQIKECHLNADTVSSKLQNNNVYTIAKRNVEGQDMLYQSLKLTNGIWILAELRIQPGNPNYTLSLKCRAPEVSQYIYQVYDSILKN
UniProt P49407: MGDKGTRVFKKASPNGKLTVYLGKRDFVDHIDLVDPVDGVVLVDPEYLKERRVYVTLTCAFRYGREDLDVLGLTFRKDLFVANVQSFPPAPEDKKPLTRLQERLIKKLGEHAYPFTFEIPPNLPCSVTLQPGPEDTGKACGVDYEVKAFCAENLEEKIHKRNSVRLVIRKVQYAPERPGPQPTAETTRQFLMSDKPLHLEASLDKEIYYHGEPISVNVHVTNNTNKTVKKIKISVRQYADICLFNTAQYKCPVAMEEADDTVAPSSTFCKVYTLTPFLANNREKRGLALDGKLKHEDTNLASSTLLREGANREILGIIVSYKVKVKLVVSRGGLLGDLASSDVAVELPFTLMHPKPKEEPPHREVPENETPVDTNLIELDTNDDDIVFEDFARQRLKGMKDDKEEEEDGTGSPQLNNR

binding (β2-adaptin-YFP [1]): binds
binding (β2-adaptin-YFP [2]): binds
Substance: βarr1-RlucII (from UniProt P49407 1-418)
